Values from PubChem BioAssay AID1159584 (Peter MacCallum Cancer Centre, 2016).
Aim: 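Genes that CDH1-null MCF10A cells selectively depend on to survive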 (primary screen). Cell system: human MCF10A breast epithelial cells, parental and CDH1-null. Knock-down reagent: siRNA against human genes. Detection: 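Cell viability by CellTiter-Glo ATP luminescence, each line scaled to the mean of mock wells across plates, then CDH1-null over parental ratio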. Scale: CDH1-null / parental viability ratio: higher = CDH1-null cells survive relatively better than parental; CDH1-null viability vs mock: higher = more viable CDH1-null cells; parental viability vs mock: higher = more viable parental cells.
The whole screen tested about 18,000 reagents; below is a part drawn at random. Reagent sequences are not shown. The record does not give: the amount of reagent, the time to read-out.

| target | CDH1-null / parental viability ratio | CDH1-null viability vs mock (fraction of mock) | parental viability vs mock (fraction of mock) |
| --- | --- | --- | --- |
| MYO1F | 1.11 | 0.98 | 0.88 |
| HBM | 0.91 | 0.52 | 0.57 |
| VIPAS39 | 1.19 | 1.12 | 0.94 |
| CFAP43 | 0.6 | 0.48 | 0.8 |
| TSPOAP1 | 1.37 | 0.78 | 0.57 |
| AANAT | 1.19 | 0.5 | 0.42 |
| HOXA5 | 1 | 0.66 | 0.66 |
| ZMAT2 | 0.9 | 0.45 | 0.5 |
| RLN2 | 0.99 | 0.96 | 0.97 |
| NOB1 | 1.04 | 0.84 | 0.81 |
| MRPL42 | 1.06 | 0.34 | 0.32 |
| TSPAN4 | 0.95 | 0.4 | 0.42 |
| INO80B | 0.81 | 0.65 | 0.8 |
| FBXO44 | 1.06 | 0.93 | 0.88 |
| RIT1 | 0.9 | 0.92 | 1.02 |
| TMEM115 | 0.96 | 0.76 | 0.79 |
| TMEM79 | 0.97 | 0.74 | 0.76 |
| PDCD2L | 0.88 | 0.76 | 0.86 |
| USF1 | 1.13 | 1.02 | 0.9 |
| WNT4 | 1.18 | 0.6 | 0.51 |
| NDUFA5 | 1.2 | 0.6 | 0.5 |
| CADPS | 0.79 | 0.57 | 0.72 |
| TTLL1 | 0.86 | 0.76 | 0.88 |
| TVP23A | 0.94 | 0.76 | 0.81 |
| PLAAT1 | 1.02 | 0.92 | 0.9 |

The list goes on (5 carried over from the part before).
| target | CDH1-null / parental viability ratio | CDH1-null viability vs mock (fraction of mock) | parental viability vs mock (fraction of mock) |
| --- | --- | --- | --- |
| NDUFA5 | 1.2 | 0.6 | 0.5 |
| CADPS | 0.79 | 0.57 | 0.72 |
| TTLL1 | 0.86 | 0.76 | 0.88 |
| TVP23A | 0.94 | 0.76 | 0.81 |
| PLAAT1 | 1.02 | 0.92 | 0.9 |
| FCRL4 | 1.03 | 0.7 | 0.68 |
| MAPK13 | 1.01 | 1.02 | 1.01 |
| C4B | 0.88 | 0.45 | 0.51 |
| SLC35E3 | 1.15 | 0.9 | 0.78 |
| DDIT4 | 1.09 | 1.02 | 0.94 |
| MT1HL1 | 1.12 | 0.99 | 0.88 |
| CARD8 | 0.93 | 0.84 | 0.9 |
| DEFA5 | 1.05 | 0.8 | 0.76 |
| MBTPS1 | 1.28 | 0.92 | 0.72 |
| USP5 | 1.17 | 0.84 | 0.72 |
| OR8D1 | 0.99 | 1.1 | 1.11 |
| LSMEM1 | 0.89 | 0.84 | 0.94 |
| SH2B2 | 0.81 | 0.44 | 0.54 |
| HEATR6 | 1.14 | 1.12 | 0.98 |
| PPP4R3A | 1 | 0.45 | 0.45 |
| BCL6B | 1.19 | 0.86 | 0.72 |
| FIGN | 1.1 | 0.55 | 0.5 |
| FLVCR1 | 1.07 | 1.02 | 0.95 |
| APCS | 1.12 | 1.23 | 1.1 |
| CCNY | 1.16 | 1.02 | 0.88 |
| TUBA1C | 0.64 | 0.5 | 0.78 |
